According to article PMC8155045:
Construct, isoform or probe ends are uncertain for at least one entry. At least one result comes from cells or an extract, where the contact may be indirect.

Tests used:
Test in all cases: EMSA
[1] = test system: endogenous NF-YA + endogenous NF-YB + endogenous NF-YC; settings: HeLa nuclear extract 10 ug; EMSA: 20 nM Cy5 probe, 10 ug HeLa nuclear extract, 30 min at 30 C; 4.5% native PAGE in 0.25x TBE; binding buffer; protein in an extract; label: 5'-Cy5
[2] = test system: EGFP-NF-YA (37 kDa isoform) + endogenous NF-YB + endogenous NF-YC; settings: EGFP-YA transfected HeLa nuclear extract, endogenous complex completely substituted; EMSA: 20 nM Cy5 probe, 10 ug HeLa nuclear extract, 30 min at 30 C; 4.5% native PAGE in 0.25x TBE; binding buffer; protein in a lysate after overexpression; protein details: N-terminal EGFP; label: 5'-Cy5
[3] = test system: endogenous NF-YA + NF-YB minimal domain (YBmd) + NF-YC minimal domain (YCmd); settings: 60 nM YB/YCmd added to nuclear extract; EMSA: 20 nM Cy5 probe, 10 ug HeLa nuclear extract, 30 min at 30 C; 4.5% native PAGE in 0.25x TBE; binding buffer; protein in an extract; label: 5'-Cy5
[4] = test system: EGFP-NF-YA (37 kDa isoform) + NF-YB minimal domain (YBmd) + NF-YC minimal domain (YCmd); settings: 60 nM YB/YCmd added, bound fraction increased; EMSA: 20 nM Cy5 probe, 10 ug HeLa nuclear extract, 30 min at 30 C; 4.5% native PAGE in 0.25x TBE; binding buffer; protein in a lysate after overexpression; protein details: N-terminal EGFP; label: 5'-Cy5

Measured: binding result

CTTCTGAGCCAATCACCGAGCTCGATGAGGC (double strand) [HSP70 promoter CCAAT-box probe]
binds: [1] | [2] | [3] | [4]
